Record: PubChem BioAssay AID1259425 (University of Nebraska Medical Center, 2018)
Here is an unselected part of about 14,000 deposited reagents. Not all columns of the deposit are shown. No sequences are given here. Not stated in the record: the time to read-out.

Test: 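Compare each knockdown with KSR1 silencing using changes in marker transcripts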 (primary screen)
Cells: HCT116 human colon cancer cells
Reagents: siRNA pool against human genes, 50 nM siRNA
Read-out: 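After 50 nM siRNA pool, branched-DNA assay measures six marker transcripts per well, minus blank, normalised to the geometric mean of two housekeeping transcripts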
Direction: BNIP3L mRNA: higher = more BNIP3L transcript after knockdown; NDRG1 mRNA: higher = more NDRG1 transcript after knockdown

For KHDRBS1, what does the deposit list?
BNIP3L mRNA, set 1: 0.121; NDRG1 mRNA, set 1: 0.0552

With IFI30, how do the results read?
BNIP3L mRNA, set 1: 0.0681; NDRG1 mRNA, set 1: 0.183

How did the screen score ABCA11P?
BNIP3L mRNA, set 1: 0.108; NDRG1 mRNA, set 1: 0.228

With TOP6BL, what was measured?
BNIP3L mRNA, set 1: 0.114; NDRG1 mRNA, set 1: 0.206

With ARIH1, what was measured?
BNIP3L mRNA, set 1: 0.0393; NDRG1 mRNA, set 1: 0.134

What is on record for STC2?
BNIP3L mRNA, set 1: 0.138; NDRG1 mRNA, set 1: 0.319

What is on record for RALGPS2?
BNIP3L mRNA, set 1: 0.0793; NDRG1 mRNA, set 1: 0.0629

What is on record for CA12?
BNIP3L mRNA, set 1: 0.0919; NDRG1 mRNA, set 1: 0.132

Targets above whose target name begins with A or a (2):
ABCA11P: BNIP3L mRNA, set 1 = 0.108; NDRG1 mRNA, set 1 = 0.228
ARIH1: BNIP3L mRNA, set 1 = 0.0393; NDRG1 mRNA, set 1 = 0.134

Next reagents follow:
With TFF2, what does the deposit list?
BNIP3L mRNA, set 1: 0.257; NDRG1 mRNA, set 1: 0.218

With ELF2, what does the deposit list?
BNIP3L mRNA, set 1: 0.0921; NDRG1 mRNA, set 1: 0.0885

Which result is listed for HS3ST2?
BNIP3L mRNA, set 1: 0.112; NDRG1 mRNA, set 1: 0.205

With TNK2, what was measured?
BNIP3L mRNA, set 1: 0.0986; NDRG1 mRNA, set 1: 0.0614

With NFKBIA, how do the results read?
BNIP3L mRNA, set 1: 0.14; NDRG1 mRNA, set 1: 0.22

With SLC38A2, what does the deposit list?
BNIP3L mRNA, set 1: 0.0949; NDRG1 mRNA, set 1: 0.105

For EPM2A, what was measured?
BNIP3L mRNA, set 1: 0.0344; NDRG1 mRNA, set 1: 0.216

Which result is listed for GEMIN4?
BNIP3L mRNA, set 1: 0.122; NDRG1 mRNA, set 1: 1.13

For AUNIP, how do the results read?
BNIP3L mRNA, set 1: 0.0427; NDRG1 mRNA, set 1: 0.187

What is on record for MMEL1?
BNIP3L mRNA, set 1: 0.155; NDRG1 mRNA, set 1: 0.189

What did the screen give for TCP10L?
BNIP3L mRNA, set 1: 0.249; NDRG1 mRNA, set 1: 0.251
